Screening data, single-dose tests

Chains of the proteins cited; added tags and fusions are not shown. Residues count along the entry.
UniProt Q4DA54, 1-478: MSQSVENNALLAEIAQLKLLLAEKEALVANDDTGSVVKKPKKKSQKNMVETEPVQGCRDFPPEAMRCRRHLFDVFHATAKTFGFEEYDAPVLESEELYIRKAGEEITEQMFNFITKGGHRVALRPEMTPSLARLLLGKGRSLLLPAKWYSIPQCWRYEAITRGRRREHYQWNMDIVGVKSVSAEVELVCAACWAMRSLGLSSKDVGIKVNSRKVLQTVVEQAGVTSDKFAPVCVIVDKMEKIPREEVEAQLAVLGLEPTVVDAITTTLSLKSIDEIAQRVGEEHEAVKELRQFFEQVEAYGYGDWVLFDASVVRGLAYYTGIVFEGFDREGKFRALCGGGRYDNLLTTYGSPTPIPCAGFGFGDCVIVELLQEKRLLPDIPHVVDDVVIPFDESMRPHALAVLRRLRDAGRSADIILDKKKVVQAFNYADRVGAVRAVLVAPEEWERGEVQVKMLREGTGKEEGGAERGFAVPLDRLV
UniProt A4I591, 1-473: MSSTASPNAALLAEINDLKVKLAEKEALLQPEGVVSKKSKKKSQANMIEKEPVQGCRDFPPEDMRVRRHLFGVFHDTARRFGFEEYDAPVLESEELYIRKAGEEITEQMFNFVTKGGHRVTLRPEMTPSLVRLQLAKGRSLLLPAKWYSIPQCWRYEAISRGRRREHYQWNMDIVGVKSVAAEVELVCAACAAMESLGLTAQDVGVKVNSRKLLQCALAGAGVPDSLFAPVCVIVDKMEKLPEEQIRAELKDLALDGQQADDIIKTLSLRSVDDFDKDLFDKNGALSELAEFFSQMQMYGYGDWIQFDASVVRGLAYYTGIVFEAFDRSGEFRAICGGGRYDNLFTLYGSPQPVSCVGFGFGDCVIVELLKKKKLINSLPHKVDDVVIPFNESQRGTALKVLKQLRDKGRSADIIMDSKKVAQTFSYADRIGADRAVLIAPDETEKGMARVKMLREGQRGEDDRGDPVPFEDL

Data taken from ChEMBL document CHEMBL3988442, “University of Dundee, Small-Polar-MMV Screening Library” (2021).

T. brucei: 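Whole-parasite assay of Trypanosoma brucei over 72 hours; the read-out is not stated. Tested at 30 µM. Higher reads as stronger inhibition (inferred: compounds with an IC50 in retests scored well above the rest). Values scatter widely below zero; nearly all retest evidence comes from the higher of the two concentrations used. Size under these conditions: about 64,000 compounds, about 940 of them at 50% or above in at least one test.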
TcHisRS: 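Histidine-tRNA ligase, Trypanosoma cruzi CL Brener (UniProt Q4DA54). Enzyme assay of histidyl-tRNA synthetase; the read-out is not stated. Concentration: 30 µM. The record gives no direction; compounds that gave an IC50 in retests scored well above the rest, so higher reads as stronger inhibition. About 69,000 compounds were tested under these conditions; 0.045% (about 31) showed 50% or more at least once.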
LiHisRS: 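Histidine-tRNA ligase, Leishmania infantum (UniProt A4I591). Enzyme assay of histidyl-tRNA synthetase; the read-out is not stated. Tested at 30 µM. Higher reads as stronger inhibition (inferred: compounds with an IC50 in retests scored well above the rest). The assay is labelled LdHisRS but filed under L. infantum. Of about 69,000 compounds tested this way, about 410 (0.6%) reached 50% or more in at least one test.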

Results are given as percent effect.
The controls that fix the scale are not given in the record; negative values are as filed.
This is an unselected part of the compounds tested.

Cn1cnnc1-c1cncc(NCc2cccc3c2OC(C)(C)C3)c1 gave T. brucei: -79.73%; TcHisRS: 3.922%; LiHisRS: 5.882%.
N#Cc1cccnc1Nc1ccc(N2CCC(C(N)=O)CC2)cc1 gave T. brucei: -42.67%; TcHisRS: 1.818%; LiHisRS: 4.444%.
c1csc(-c2noc(CN3CCCC3Cn3cccn3)n2)c1 (centres undefined) gave T. brucei: -10.16%; TcHisRS: 6.686%; LiHisRS: 11.4%.
Cc1cn2c(n1)CCC(NC(=O)c1cncnc1C)C2 (centres undefined) gave TcHisRS: 4.956%; LiHisRS: 6.195%.
CCOCCNC(=O)Nc1cccc(-c2nccn2C)c1 gave T. brucei: -20.22%; TcHisRS: 2.116%; LiHisRS: 6.061%.
Cn1c2c(c(=O)c3ccccc31)CCC(C)(C)O2 gave T. brucei: -30.17%; TcHisRS: 5.155%; LiHisRS: 3.448%.
O=C(CC1CC1)N[C@@H]1CN(Cc2ccoc2)C[C@@H]2CCCO[C@@H]21 gave TcHisRS: 7.843%; LiHisRS: -31.43%.
COc1ccc(C(C)C)cc1C1CC(=O)NCc2nc(N(C)C)sc21 (centres undefined) gave T. brucei: -34.23%; TcHisRS: 7.853%; LiHisRS: 31.18%.
CCCn1nc(C)c2c(C(F)F)cc(=O)n(CC(=O)O)c21 gave T. brucei: -8.593%; TcHisRS: 2.609%; LiHisRS: 8.621%.
Cc1cc(C(=O)Nc2ccc(N3CCCC3)cn2)ccc1-n1cncn1 gave T. brucei: -53.03%; TcHisRS: 3.665%; LiHisRS: 13.79%.
O=C(c1cnn[nH]1)N(Cc1ccncc1)CC1CCCO1 (centres undefined) gave T. brucei: -78.47%; TcHisRS: 7.407%; LiHisRS: 15.69%.
Cc1csc(N2CCC(NCC3(O)CCc4ccccc43)CC2)n1 (centres undefined) gave T. brucei: -2.072%; TcHisRS: 2.809%; LiHisRS: 7.692%.
O=S(=O)(Cc1ccccc1)c1nnc(N2CCCC2)s1 gave T. brucei: -45%; TcHisRS: 4.217%; LiHisRS: 0%.
CC(C)N(CCO)C(=O)C1CCC(=O)N(CCc2cccc(F)c2)C1 (centres undefined) gave T. brucei: -13%; TcHisRS: 3.59%; LiHisRS: 3.175%.
Cc1nn(C)c2nc(N3CCCCC3c3cccnc3)sc12 (centres undefined) gave T. brucei: -9.696%; TcHisRS: 14.29%; LiHisRS: 20.16%.
CC1CCN(CCCNS(=O)(=O)c2cc(F)cc(F)c2)CC1.Cl gave T. brucei: -37.61%.
CNC(=O)CCc1cc(C)nc(C2CCN(CC(=O)N(C)C)CC2)c1 gave T. brucei: 8.23%; TcHisRS: 4.215%; LiHisRS: 11.51%.
Cc1nc(N2CCN(C(=O)NCc3cscn3)CC2)sc1C gave T. brucei: -11.4%; TcHisRS: 4.933%; LiHisRS: 15.29%.
O=C(O)C(F)(F)F.O=C(O)C(F)(F)F.O=C(O)C(F)(F)F.c1ccc(Cn2cc3c(n2)C(CNCC2CCOCC2)OCC3)nc1 (centres undefined) gave T. brucei: -65.55%.
CC(=O)Nc1nc(C(=O)N2CCCC(n3nc(C)nc3C)C2)cs1 (centres undefined) gave T. brucei: 14.26%; TcHisRS: 1.734%; LiHisRS: 4.386%.
O=C(NS(=O)(=O)c1cc(Cl)ccc1Cl)c1cccc2c1OCCO2 gave T. brucei: -24.35%; TcHisRS: -27.61%; LiHisRS: 12.35%.
Cc1ccc(C(=O)N2CCCN(C)c3ccc(F)cc32)o1 gave T. brucei: -35.52%; TcHisRS: 7%; LiHisRS: 15.22%.
COc1ccc(CN2C[C@@H]3[C@H](CC(=O)N4CCCC4)[C@@H]3C2)cc1 gave TcHisRS: 2.913%; LiHisRS: 9.709%.
CC(C)c1cccc(N2CCCC3(CCC(=O)N(C4CC4)C3)C2)n1 (centres undefined) gave T. brucei: -22.8%; TcHisRS: 13%; LiHisRS: 26.53%.
CN(Cc1cccnc1)[C@@H]1CN(C(=O)c2ccco2)[C@@H]2CCCO[C@H]12 gave TcHisRS: 0%; LiHisRS: 2.727%.
CN(C)CCN1C2(CCN(Cc3nccs3)C2)c2ccccc2S1(=O)=O (centres undefined) gave TcHisRS: 5.882%; LiHisRS: 28%.
CN(Cc1noc2c1CCCC2)C(=O)C1Cc2ccccc2CN1C (centres undefined) gave TcHisRS: -5.797%; LiHisRS: 12.5%.
[H][C@@]12CCN(c3ncccn3)[C@]1([H])CC[C@@H](C(=O)N1CCCO1)O2 gave T. brucei: -26.34%.
N#Cc1cccc(C(=O)N2C[C@H](CO)C[C@H](CN3CCCC3)C2)c1 gave T. brucei: -38.3%; TcHisRS: 10.89%; LiHisRS: 6.849%.
Cc1cnn(CC2CCCCN2C(=O)Cc2c(C)noc2Cl)c1 (centres undefined) gave T. brucei: 2.775%; TcHisRS: 3%; LiHisRS: 15.07%.
[H][C@@]12CCC(=O)N(CCc3c[nH]cn3)[C@]1([H])CCN(Cc1coc(C)n1)C2 gave T. brucei: -25.9%.

Some entries from above, unchanged:

COc1ccc(CN2C[C@@H]3[C@H](CC(=O)N4CCCC4)[C@@H]3C2)cc1 read TcHisRS: 2.913%; LiHisRS: 9.709%.
[H][C@@]12CCC(=O)N(CCc3c[nH]cn3)[C@]1([H])CCN(Cc1coc(C)n1)C2 read T. brucei: -25.9%.